Reference: the supplement of paper PMC6331611
± gives the standard deviation of the averaged measurements. Whole data set: some 1,600 compounds, median “normalized growth (OD600, IQM-normalized) in LPM” near 1, cut for the lowest 2% near 0.014. The list shows a part of the results.

Tested on: Salmonella enterica serovar Typhimurium SL1344
Assay: normalized growth (OD600, IQM-normalized) in LPM (fraction of plate interquartile mean); higher = more bacterial growth (less inhibition)
Conditions: LPM pH 5.8; 10 µM; 16 h

Row | SMILES | normalized growth
1 | O=C(N/N=C/c1ccc([N+](=O)[O-])o1)c1cc([N+](=O)[O-])cc([N+](=O)[O-])c1O | 0.842 ± 0.44
2 | COC(=O)C1=CCCN(C)C1 | 1.01 ± 0.029
3 | CC(C)(C)NCC(O)c1cc(Cl)c(N)c(Cl)c1 (stereo not given) | 0.932 ± 0.085
4 | COc1cc2c(cc1OC)[C@@]13CCN4CC5=CCO[C@H]6CC(=O)N2[C@H]1[C@H]6[C@H]5C[C@H]43 | 1.1 ± 0.037
5 | CNCC(=O)c1ccc(O)c(O)c1 | 0.841 ± 0.04
6 | O=C(NC(=O)c1c(F)cccc1F)Nc1cc(Cl)c(OC(F)(F)C(F)C(F)(F)F)cc1Cl (stereo not given) | 1.5 ± 0.3
7 | COc1ccc(CCN2CCC(Nc3nc4ccccc4n3Cc3ccc(F)cc3)CC2)cc1 | 1.09 ± 0.02
8 | CC(=O)O[C@H]1C[C@H](O[C@H]2[C@@H](O)C[C@H](O[C@H]3[C@@H](O)C[C@H](O[C@H]4CC[C@@]5(C)[C@H](CC[C@@H]6[C@@H]5C[C@@H](O)[C@]5(C)[C@@H](C7=CC(=O)OC7)CC[C@]65O)C4)O[C@@H]3C)O[C@@H]2C)O[C@H](C)[C@H]1O[C@@H]1O[C@H](CO)[C@@H](O)[C@H](O)[C@H]1O | 1.04 ± 0.061
9 | CC1(C)C(C=C(Cl)Cl)C1C(=O)OC(C#N)c1cccc(Oc2ccccc2)c1 (stereo not given) | 0.842 ± 0.034
10 | Oc1cc(Cl)ccc1Oc1ccc(Cl)cc1Cl | 0.00811 ± 0.00016
11 | C[C@]12CC[C@@H]3c4ccc(OC(=O)N(CCCl)CCCl)cc4CC[C@H]3[C@@H]1CC[C@@H]2O | 0.931 ± 0.019
12 | COc1ccc(O)c(C(C)(C)C)c1.COc1ccc(O)cc1C(C)(C)C | 1.06 ± 0.022
13 | O=[N+]([O-])c1cc([As](=O)(O)O)ccc1O | 1.31 ± 0.031
14 | CCN1C[C@]2(COC)[C@H](O)C[C@H](OC)[C@@]34[C@@H]5C[C@@]6(O)[C@H](OC(=O)c7ccccc7)[C@@H]5[C@@](OC(C)=O)([C@@H]([C@H](OC)[C@H]23)[C@@H]14)[C@@H](O)[C@@H]6OC | 1.05 ± 0.017
15 | CC[C@@H](c1cccc(O)c1)[C@@H](C)CN(C)C | 0.956 ± 0.047
16 | CN(C)C(=O)Oc1cc(OC(=O)N(C)C)cc(C(O)CNC(C)(C)C)c1 (stereo not given) | 1 ± 0.045
17 | CCn1cc(C(=O)O)c(=O)c2cc3c(cc21)OCO3 | 0.00952 ± 0.00073
18 | C[N+]1(C)[C@@H]2C[C@@H](OC(=O)[C@H](CO)c3ccccc3)C[C@H]1[C@@H]1O[C@@H]12 | 0.974 ± 0.03
19 | CCC1(c2ccc(N)cc2)CCC(=O)NC1=O (stereo not given) | 0.907 ± 0.025
20 | CCN(C)C(=O)Oc1cccc([C@H](C)N(C)C)c1 | 1.03 ± 0.023
21 | C[C@@H]1O[C@@H](O[C@H]2C[C@@H](O)[C@]3(CO)[C@H]4[C@H](O)C[C@]5(C)[C@@H](C6=CC(=O)OC6)CC[C@]5(O)[C@@H]4CC[C@]3(O)C2)[C@H](O)[C@H](O)[C@H]1O | 0.985 ± 0.0052
22 | [N-]=[N+]=CC(=O)OC[C@H](N)C(=O)O | 1.07 ± 0.025

An excerpt from above in order of number of heavy atoms, smallest number first:
Row | SMILES | normalized growth
19 | CCC1(c2ccc(N)cc2)CCC(=O)NC1=O (stereo not given) | 0.907 ± 0.025
18 | C[N+]1(C)[C@@H]2C[C@@H](OC(=O)[C@H](CO)c3ccccc3)C[C@H]1[C@@H]1O[C@@H]12 | 0.974 ± 0.03
21 | C[C@@H]1O[C@@H](O[C@H]2C[C@@H](O)[C@]3(CO)[C@H]4[C@H](O)C[C@]5(C)[C@@H](C6=CC(=O)OC6)CC[C@]5(O)[C@@H]4CC[C@]3(O)C2)[C@H](O)[C@H](O)[C@H]1O | 0.985 ± 0.0052

Remaining list, next part

Row | SMILES | normalized growth
23 | N=C1NC(=O)N2CC12 (stereo not given) | 1.02 ± 0.037
24 | NC(=O)C[S+]([O-])C(c1ccccc1)c1ccccc1 (stereo not given) | 0.865 ± 0.082
25 | Clc1ccc(C(OCCN2CCCCC2)c2ccccc2)cc1 (stereo not given) | 1.05 ± 0.065
26 | C[C@@H](CO)NC(=O)[C@@H]1C=C2c3cccc4[nH]cc(c34)C[C@H]2N(C)C1 | 0.9722 ± 0.0039
27 | Cc1cccc(C)c1NC1=NCCCS1 | 0.961 ± 0.041
28 | CC(=O)OCC1=C(C(=O)O)N2C(=O)[C@@H](NC(=O)CCC[C@@H](N)C(=O)O)[C@H]2SC1 | 1.01 ± 0.019
29 | O=c1[nH]c(=O)n(Cl)c(=O)n1Cl | 0.986 ± 0.075
30 | NC(=O)CN1CCCC1=O | 1.02 ± 0.036
31 | O=P1(NCCCl)OCCCN1CCCl (stereo not given) | 1.11 ± 0.053
32 | Oc1ccc(Cl)cc1 | 0.971 ± 0.012
33 | CC(C)c1c(CN(C)C(C)Cc2ccccc2)n(C)n(-c2ccccc2)c1=O (stereo not given) | 1.11 ± 0.0021
34 | OC[C@@H](O)[C@H]1O[C@@H]2O[C@H](C(Cl)(Cl)Cl)O[C@@H]2[C@H]1O | 0.939 ± 0.057
35 | C[N+]12CCC(CC1)C(OC(=O)C(O)(c1ccccc1)c1ccccc1)C2 (stereo not given) | 1.05 ± 0.026
36 | CC(=O)[C@H]1CC[C@H]2[C@@H]3CC[C@@H]4C[C@H](O)CC[C@]4(C)[C@H]3CC[C@]12C | 1.11 ± 0.052
37 | CC(CC(C(N)=O)(c1ccccc1)c1ccccc1)N(C)C (stereo not given) | 1.03 ± 0.026
38 | COC(=O)C(c1ccccc1)C1CCCCN1 (stereo not given) | 0.96 ± 0.039
39 | CO[C@]12C[C@@H](COC(=O)c3cncc(Br)c3)CN(C)[C@@H]1Cc1cn(C)c3cccc2c13 | 0.831 ± 0.059
40 | CN(C)C(=S)SSC(=S)N(C)C | 1.21 ± 0.05
41 | CC(C)C[C@H](CN)CC(=O)O | 0.979 ± 0.024
42 | CCC(C)(C)O | 0.971 ± 0.064
43 | CC(C)(C)NCC(O)c1ccccc1Cl (stereo not given) | 1.01 ± 0.061
44 | Cc1ccc(O)cc1.Cc1cccc(O)c1.Cc1ccccc1O | 0.955 ± 0.19

Row | SMILES | normalized growth
45 | CCNC1(c2cccs2)CCCCC1=O (stereo not given) | 1.01 ± 0.027
46 | C[C@@H]1CC[C@H]2[C@@H](C)C(=O)O[C@@H]3O[C@@]4(C)CC[C@@H]1[C@]32OO4 | 0.621 ± 0.13
47 | CC[C@H]1[C@@H]2C[C@H]3[C@@H]4N(C)c5ccccc5[C@]45C[C@@H]([C@@H]2[C@H]5O)N3[C@@H]1O | 1.48 ± 0.1
48 | CC[C@H]1CN2CCc3cc(OC)c(OC)cc3[C@@H]2C[C@@H]1C[C@H]1NCCc2cc(OC)c(OC)cc21 | 1.2 ± 0.1
49 | COc1cc([C@@H]2c3cc4c(cc3[C@H](O)[C@H]3COC(=O)[C@H]23)OCO4)cc(OC)c1OC | 0.966 ± 0.024
50 | O=[N+]([O-])c1ccc([As](=O)(O)O)cc1 | 1.26 ± 0.023
51 | CCN(C(C)=O)c1cccc(-c2ccnc3c(C#N)cnn23)c1 | 1.12 ± 0.075
52 | CC1(C)C(C=C(Cl)Cl)C1C(=O)OCc1cccc(Oc2ccccc2)c1 (stereo not given) | 0.813 ± 0.031
53 | O=[N+]([O-])O[C@@H]1CO[C@H]2[C@@H]1OC[C@@H]2O | 1.11 ± 0.026
54 | N[C@@H](Cc1ccc(N(CCCl)CCCl)cc1)C(=O)O | 1.63 ± 0.08
55 | CC(C)N(CCC(C(N)=O)(c1ccccc1)c1ccccn1)C(C)C (stereo not given) | 1.03 ± 0.031
56 | C[C@H](N)[C@H](O)c1ccc(O)c(O)c1 | 1.07 ± 0.018
57 | N=C(N)NN | 0.993 ± 0.036
58 | CN1[C@@H]2CC[C@H]1C[C@@H](OC(=O)[C@H](CO)c1ccccc1)C2 | 0.978 ± 0.068
59 | Cc1ccc(-c2nc3ccc(C)cn3c2CC(=O)N(C)C)cc1 | 1.1 ± 0.059
60 | Nc1nc(N)nc(NC2CC2)n1 | 1.071 ± 0.009
61 | Cc1cc(O)ccc1Cl | 0.902 ± 0.036
62 | C=C(C)[C@H]1CN[C@H](C(=O)O)[C@H]1CC(=O)O | 0.927 ± 0.031
63 | COc1ccc(CN2CCNCC2)c(OC)c1OC | 1.06 ± 0.034
64 | CC[C@H]1CN2CC[C@H]1C[C@@H]2[C@@H](O)c1ccnc2ccc(OC)cc12 | 0.912 ± 0.022
65 | C=C[C@H]1CN2CC[C@H]1C[C@H]2[C@H](OC(=O)OCC)c1ccnc2ccc(OC)cc12 | 1.05 ± 0.058
